Assay results: US20240010747A1, “ANTI-MRP4 (ENCODED BY ABCC4 GENE) ANTIBODIES AND USES THEREOF” (Kenjockety Biotechnology, Inc., priority 2020, published 2024)
Where a chain is given by its changes, count along the chain named. No constants are given. Whether binding was seen depends on the method and setting. Some binding calls cover weakened binding; strength is not graded here.

B1: C4.1134 (antibody, V domains shown)
VH: EVQLVESDGGLVQPGRSLKLSCAASGFTFSDFYMAWVRQAPTKGLEWIATISHDGRNTFYRDSVKGRFTISRDNAKRALYLQMDSLRSEDTATYYCASLTTRYKGVMEAWGQGASVTVSS
VL: DVVMTQSPSHLAASPGESVSINCKASKNIYKYLAWYQQKPGKTNKLLIYSGSTLQSGTPSRFSGSGSGSDFTLTIRNLEPEDFGLYYCQHHNEYPPTFGGGTKLEIK
B2: C4.1152 (antibody, V domains shown)
VH: B1 VH with Q3K, T50S, F59Y, A78T, T101A, E108G, A114T, S115L
VL: B1 VL
B3: C4.1054 (antibody, V domains shown)
VH: QVQLLQSGAALVKPGASVKMSCKPSGYTFTDYWVSWVKQSHGKSLEWIGEIYPNNGATNFNEKFKGKATLTVDKSTSTAYMELSRLTSEDSAIYYCPSRKYGYNWNFDYWGQGTMVTVSS
VL: DIVLTQSPALAVSLGQRATISCRARQSVSISRYNLMHWYQQKPGQQPKVLIYRASNLASGIPARFSGSGSGTDFTLTIDPVQADDIATYYCQQSRDSPWTFGGGTKLELK
B4: C4.1131 (antibody, V domains shown)
VH: EVKLVESDGGLVQPRKSLKLSCAASGFTFTDYYMAWVRQGPTMGLEWVATISNDGSTKYYRDSVKGRFTLSRDNAKTTLHLQMDSLRSEDTATYYCARLTIRYKGVMDAWGQGASVTVSS
VL: B1 VL
B5: C4.1143 (antibody, V domains shown)
VH: B1 VH with V12L, F59Y, A78T, Q82E, S98T
VL: B1 VL

What follows are binders tested against cynomolgus ABCC4 (cynomolgus) (assay: FACS, C6 cells stably expressing cynomolgus ABCC4).

Binder	binding
B1	binds
B2	binds
B3	binds
B4	binds
B5	binds

Each binder was assayed against T1, human ABCC4 (human, UniProt O15439 1-1325) (assay: FACS, C6 cells stably expressing human ABCC4; + = MFI>3x background).
T1 construct: Expressed on murine C6 cells stably transfected with human ABCC4 cDNA with C-terminal FLAG tag; also called MRP4; Multidrug resistance protein 4; not shown: C-terminal fused FLAG tag
T1 sequence: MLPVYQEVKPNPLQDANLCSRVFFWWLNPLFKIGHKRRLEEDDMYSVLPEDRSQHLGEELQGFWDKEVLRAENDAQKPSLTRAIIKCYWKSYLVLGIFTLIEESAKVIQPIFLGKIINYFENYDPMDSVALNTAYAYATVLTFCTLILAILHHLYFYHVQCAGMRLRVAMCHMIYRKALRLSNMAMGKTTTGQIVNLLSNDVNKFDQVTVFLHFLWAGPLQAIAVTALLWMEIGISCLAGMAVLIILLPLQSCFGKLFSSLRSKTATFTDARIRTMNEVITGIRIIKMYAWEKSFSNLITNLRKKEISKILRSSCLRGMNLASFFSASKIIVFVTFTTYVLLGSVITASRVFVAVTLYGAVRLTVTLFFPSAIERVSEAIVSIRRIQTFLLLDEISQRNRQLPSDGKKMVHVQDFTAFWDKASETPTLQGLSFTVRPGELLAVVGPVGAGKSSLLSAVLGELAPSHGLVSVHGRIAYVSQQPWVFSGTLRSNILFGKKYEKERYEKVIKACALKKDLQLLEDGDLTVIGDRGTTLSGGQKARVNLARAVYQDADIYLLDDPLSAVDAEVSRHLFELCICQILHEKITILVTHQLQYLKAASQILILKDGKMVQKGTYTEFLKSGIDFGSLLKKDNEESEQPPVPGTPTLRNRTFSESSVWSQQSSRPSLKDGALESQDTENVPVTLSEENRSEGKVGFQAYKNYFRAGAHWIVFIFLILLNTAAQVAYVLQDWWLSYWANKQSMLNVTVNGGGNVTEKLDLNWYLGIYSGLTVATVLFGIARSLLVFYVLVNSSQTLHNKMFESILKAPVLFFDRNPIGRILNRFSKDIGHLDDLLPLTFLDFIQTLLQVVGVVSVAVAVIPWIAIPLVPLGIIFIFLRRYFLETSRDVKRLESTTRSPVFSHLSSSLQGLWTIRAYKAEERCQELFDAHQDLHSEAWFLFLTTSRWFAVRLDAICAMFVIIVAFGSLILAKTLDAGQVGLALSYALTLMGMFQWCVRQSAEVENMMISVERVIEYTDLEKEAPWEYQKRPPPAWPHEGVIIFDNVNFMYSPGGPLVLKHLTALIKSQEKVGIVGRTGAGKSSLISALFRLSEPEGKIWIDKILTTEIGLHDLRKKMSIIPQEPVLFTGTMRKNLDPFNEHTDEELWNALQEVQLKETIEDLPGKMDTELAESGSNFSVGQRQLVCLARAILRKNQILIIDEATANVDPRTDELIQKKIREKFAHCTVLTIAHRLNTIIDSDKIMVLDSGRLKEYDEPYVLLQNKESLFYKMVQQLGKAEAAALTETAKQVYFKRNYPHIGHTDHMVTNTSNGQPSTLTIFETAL
Method: Antibody binding to cells was evaluated by flow cytometry. Murine C6 cells stably transfected to express human or cynomolgus ABCC4 were washed once in flow cytometry buffer (PBS+2% FBS+0.02% sodium azide), resuspended at 2×10\hat{ }6 cells/mL in flow cytometry buffer, and dispensed into 96-well microtiter plates at 0.1 mL/well. Recombinant antibodies were added to cells at 5 ug/mL for initial binding confirmation, or serially diluted from 100 ug/mL in flow cytometry buffer. After incubating cells on ice for 30 min, cells were washed twice with flow cytometry buffer. Bound antibody was detected with PE-labeled F(ab′)₂ fragment goat anti-human IgG (Jackson ImmunoResearch) and evaluated on an Attune N×T flow cytometer. EC50 is calculated to be the concentration of antibody that gives half maximal response.

Binder	binding
B5	binds

Each binder was assayed against cynomolgus ABCC4 (cynomolgus) (assay: FACS, different C6.cC4 cell line expressing cynomolgus ABCC4; + = MFI>3x background).

Binder	binding
B1	binds
B2	binds
B3	binds
B4	binds
B5	binds

What follows are binders tested against T1, human ABCC4 (assay: FACS, C6 cells stably expressing human ABCC4).

Binder	binding
B5	binds
